Measured values reported in the RNAGym collection of RNA variant scans (doi:10.1126/science.aae0568).
Variants at the background level are over-represented here.

B1: tRNA (parent)
chain: GUUCCGUUGGCGUAAUGGUAACGCGUCUCCCUCCUAAGGAGAAGACUGCGGGUUCGAGUCCCGUACGGAACG

Variants of: B1
Assay: yeast fitness relative to wild type (ratio to wild type); higher = fitter; tRNA-Arg(CCU), competitive growth, 37 C, YPD
Method in brief: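 For this measurement, the tRNA-Arg(CCU) gene was varied by chemical synthesis at a 3% per-site mutation rate across 69 sites, and each variant was placed at the native genomic locus in Saccharomyces cerevisiae. The pooled strains went through a 24-hour competition in YPD at 37°C in six parallel replicates, with amplicons from start and end populations read by 100-nucleotide paired-end sequencing. Darwinian fitness relative to wild type followed from the change in each genotype's frequency. Genotypes needed ≥ 100 starting reads, and estimates < 0.5 were set to 0.5.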

| Variant | yeast fitness |
| --- | --- |
| U13G U32A C60A | ≤ 0.5 |
| G12A C24A A36U A65U | ≤ 0.5 |
| C4A C29G C30U | ≤ 0.5 |
| U2C C5U C11G | ≤ 0.5 |
| C4G A21G C34U G44C C55G | ≤ 0.5 |
| U7A G25A C30U A57C | ≤ 0.5 |
| C24A C31A A40U A42C C49A | ≤ 0.5 |
| C11G C22U C34A A45G | ≤ 0.5 |
| C33U C55G G67A A70G | ≤ 0.5 |
| U2C U19A U26C A45C G52C | ≤ 0.5 |
| G6A A20G C31G C46U C66A | ≤ 0.5 |
| A20C A21U C29A A45U | ≤ 0.5 |
| U7C A15C A20G A70C | ≤ 0.5 |
| U8C G17A C60U | ≤ 0.5 |
| A36C C49U C55U C60U | ≤ 0.5 |
| G6C A20C C34G | ≤ 0.5 |
| C27U C46G A57U C66U A70U | ≤ 0.5 |
| G6A G12A A20G C22G U26A G48C G68U | ≤ 0.5 |
| C11A U19G | 0.669 |
| U2C C29G C30G G48C | ≤ 0.5 |
| U2G G12U A43U | 0.631 |
| C24A A40G C66G | ≤ 0.5 |
| C4U C11U U26G U28C A37G G41A C49G | ≤ 0.5 |
| A21C C27A U28A A45G A69C | ≤ 0.5 |

| Variant | yeast fitness |
| --- | --- |
| U7A C11G A36G G63A | ≤ 0.5 |
| U2A C4U U8G C55G A70C | ≤ 0.5 |
| G56A C60G C61U | ≤ 0.5 |
| C5A C24U G58C A69U | ≤ 0.5 |
| C22U C33G C62U A70U | ≤ 0.5 |
| U7A G10A C33A A36C G51A | ≤ 0.5 |
| C4G C11U G18A C22U A43U | ≤ 0.5 |
| C4U C5G C29G C31G A37C A57C C62U | ≤ 0.5 |
| A21U C29G G63A | 0.618 |
| C46A G48C | 0.924 |
| G23C C27G C34U U35A G38A A65U | ≤ 0.5 |
| C5G C22A A37G G48A G50C | ≤ 0.5 |
| U26C U54C U64A | ≤ 0.5 |
| C4U A37G G39C C61U | ≤ 0.5 |
| C11G C66A | ≤ 0.5 |
| G9A A15U A20G G52A | ≤ 0.5 |
| C11A A21G C61U | ≤ 0.5 |
| U3A G6A U8G U19C A40U C55A | ≤ 0.5 |
| U26C C30U U47A | 0.749 |
| A20C U35A A36G G44C G48A A57C | ≤ 0.5 |
| C27U C34G A37U G41C G48A | ≤ 0.5 |
| G18A A20U A36U C62U | ≤ 0.5 |
| A14U U16A C22U C24A G67A A69C | 0.67 |
| C5A A15U G41C | ≤ 0.5 |

| Variant | yeast fitness |
| --- | --- |
| U2C C24U G44C | ≤ 0.5 |
| U2G G6A C61U | ≤ 0.5 |
| U3A A14C A42C U47C | ≤ 0.5 |
| G10C C27U C30U | ≤ 0.5 |
| C11U U32A A43G U53A | ≤ 0.5 |
| C5U G9C C27A A37U C49A G56A | ≤ 0.5 |
| C5U U47C C49U U64A | ≤ 0.5 |
| A15U C33U C62G C66G | ≤ 0.5 |
| C33A A37U C62A | 0.503 |
| C5G G17C G25A G52A | ≤ 0.5 |
| C27A C29G C33U A37C G50A C66U | ≤ 0.5 |
| C31U G52A G68C | ≤ 0.5 |
| C11A C60G | ≤ 0.5 |
| U8C G25A C29G C31A | ≤ 0.5 |
| C11U G44C | 0.974 |
| A21G C49U U53C C61G | ≤ 0.5 |
| U3C G6C A14U A15G G25A G38A U47A C60G A70G | ≤ 0.5 |
| C11A U59A | 0.629 |
| A14G C27G | 0.562 |
| C27U A43C C49U | 0.757 |
| C5U U13A A15G C55U A57U U64G | ≤ 0.5 |
| A20C C33G A40C A45U | ≤ 0.5 |
| C11U C49U G56A A65C | ≤ 0.5 |
| C33G C60A C66G | ≤ 0.5 |

| Variant | yeast fitness |
| --- | --- |
| C5A U19A G38C | ≤ 0.5 |
| A20G G38C C46U G63U | ≤ 0.5 |
| C11U G23A C61U | ≤ 0.5 |
| A40C C61U | 0.799 |
| C4G U26A A37U | ≤ 0.5 |
| C22G G38A C55A | ≤ 0.5 |
| C5G G52A A70U | ≤ 0.5 |
| C22G C27U U59A G63A A70U | ≤ 0.5 |
| U2G U8C G12A A45U G48A | ≤ 0.5 |
| A15U A20G U35C G48U C55G | ≤ 0.5 |
| A15C G18A C24A C34U C46G | ≤ 0.5 |
| G25C U53C A65C | 0.697 |
| G9C U16C C30U U53A | ≤ 0.5 |
| A21G C27A | 0.757 |
| C5G G23A A43G G48C | ≤ 0.5 |
| C4A G25C C34U A57C | ≤ 0.5 |
| G9A A21G C33A C62U G63C A70C | ≤ 0.5 |
| G10A U26G A65U | ≤ 0.5 |
| C24U A70G | 0.887 |
| A14U C49G A57U | ≤ 0.5 |
| C61U C66G | 0.706 |
| G50A U54G | 0.559 |
| U19C G23C U53C G67C | ≤ 0.5 |
| C24U C55G G56C | ≤ 0.5 |

| Variant | yeast fitness |
| --- | --- |
| U3C C22G C27A C49U | ≤ 0.5 |
| U3A C4U C33G C34G A57U C61U | ≤ 0.5 |
| A37G A42U C49G A57U | ≤ 0.5 |
| C11U G18A C29G C30U A40U A70G | ≤ 0.5 |
| A20U C34G A42C | ≤ 0.5 |
| U16A C30G C34G A42U | ≤ 0.5 |
| U8C C11G U13C A65G A69C | ≤ 0.5 |
| C5G A21U C60A | ≤ 0.5 |
| C29U A69C | 0.939 |
| G23C A37C C46G | ≤ 0.5 |
| A15C A21U A43G | ≤ 0.5 |
| A14U A15C A65U | ≤ 0.5 |
| G38C G41A G56C G63A | ≤ 0.5 |
| U7G C31A C55U G63A | ≤ 0.5 |
| A20U C33G U35C | ≤ 0.5 |
| G6A C24U U26G C34A C46G G56A A65C | ≤ 0.5 |
| C29U C31G C34G A37C | ≤ 0.5 |
| A14U A40G A45U G56A | ≤ 0.5 |
| C11A C55U G63A | ≤ 0.5 |
| C22A A70U | 1.01 |
| G12A A36G C49G C62A G63A A70C | ≤ 0.5 |
| U2A A21C C29U U59A | ≤ 0.5 |
| G10C U13A C31A | 0.594 |
| C27U C30U A37C | ≤ 0.5 |

| Variant | yeast fitness |
| --- | --- |
| C30U U35C G52C C66G | ≤ 0.5 |
| A20G A43C G48A A70U | ≤ 0.5 |
| U35A A40U C46G U53A | ≤ 0.5 |
| C11G A21C C30U | ≤ 0.5 |
| U7A C29A G50C U54C | ≤ 0.5 |
| A37G C66A A69U | ≤ 0.5 |
| U2A C31A A57G | 0.555 |
| A37G G58A | 0.976 |
| G17A U64G C66U | ≤ 0.5 |
| G6C G23A C33U G44C | ≤ 0.5 |
| A14U A40U G68A A69U | ≤ 0.5 |
| U26A A70G | 0.924 |
| G10C G18C A45C G56C | ≤ 0.5 |
| G6A A20G C24U A40G A43G C55U | ≤ 0.5 |
| U13A G23A A37U G48C | ≤ 0.5 |
| C29U C49U U53C C61A | ≤ 0.5 |
| C31A C33G A36U C60U U64G A65U A69C | ≤ 0.5 |
| C60A A69U | 0.746 |
| U2A G10A G17C U35C U47C C55G | ≤ 0.5 |
| U7C C27G C33G G44A C62G | ≤ 0.5 |
| C4G G10A U28G | ≤ 0.5 |
| C11U A15C A40U C66G | ≤ 0.5 |
| U2C C24G A40C G56U | ≤ 0.5 |
| U16A C22G G48A C61U A65G | ≤ 0.5 |

| Variant | yeast fitness |
| --- | --- |
| C22G C61U G63C | ≤ 0.5 |
| C11U U32C A37U G52A C66A | ≤ 0.5 |
| G6C C29A A42G U54A C60G G68A | ≤ 0.5 |
| U7G A14C C24G C31A C33G G44C | ≤ 0.5 |
| C22U U59A C61G | 0.547 |
| U19A C22A G41A G56C C66A | ≤ 0.5 |
| G6A A14G A36G G48A U64G | ≤ 0.5 |
| U26C C31U U53A C66A | ≤ 0.5 |
| U2G G9A A14U A37C | ≤ 0.5 |
| C4A G17A G51C | ≤ 0.5 |
| A21C G23C C62A | ≤ 0.5 |
| A14G G17C C34U | ≤ 0.5 |
| A36U C55A | ≤ 0.5 |
| G9C A20C C27U G39A G56A | ≤ 0.5 |
| A43C A57U G68C | ≤ 0.5 |
| C11G C34G C60A | ≤ 0.5 |
| U19C C62A | 0.713 |
| U32A C33U A42U C60A | 0.595 |
| U28C C30G A45G | ≤ 0.5 |
| G10C C24G | ≤ 0.5 |
| A15C U59A C62A | ≤ 0.5 |
| A15C A36C G38C G52A G58A | ≤ 0.5 |
| G17A A57G | 0.906 |
